Measurements as given in PubChem BioAssay AID2662 (National Center for Advancing Translational Sciences (NCATS), 2010).
The whole screen tested about 290,000 compounds, of which about 110 (0.038%) were called active. Inconclusive means that the source gave no clear call. Such entries were picked first, then a sample of the others. Calls come from the whole dose curve; as a rule, active = well fitted inhibition curve with a large enough effect in the polarisation, with a control signal flat (not every such curve was filed as active); inconclusive = small, poorly fitted or top-dose-only effect, or effect the other way, or a change in a side signal; inactive = no such curve, though single readings can be large or run the other way; the % refers to the polarisation. Potencies of inconclusive entries are doubtful fits and often do not repeat. A note “side channel” means that the fit belongs to a control or component signal, not to the main read-out.
Potency is the fitted concentration of half-maximal effect.

Amino acid sequences for entries named in this document (tags omitted).
UniProt Q03164, whole entry, looked up: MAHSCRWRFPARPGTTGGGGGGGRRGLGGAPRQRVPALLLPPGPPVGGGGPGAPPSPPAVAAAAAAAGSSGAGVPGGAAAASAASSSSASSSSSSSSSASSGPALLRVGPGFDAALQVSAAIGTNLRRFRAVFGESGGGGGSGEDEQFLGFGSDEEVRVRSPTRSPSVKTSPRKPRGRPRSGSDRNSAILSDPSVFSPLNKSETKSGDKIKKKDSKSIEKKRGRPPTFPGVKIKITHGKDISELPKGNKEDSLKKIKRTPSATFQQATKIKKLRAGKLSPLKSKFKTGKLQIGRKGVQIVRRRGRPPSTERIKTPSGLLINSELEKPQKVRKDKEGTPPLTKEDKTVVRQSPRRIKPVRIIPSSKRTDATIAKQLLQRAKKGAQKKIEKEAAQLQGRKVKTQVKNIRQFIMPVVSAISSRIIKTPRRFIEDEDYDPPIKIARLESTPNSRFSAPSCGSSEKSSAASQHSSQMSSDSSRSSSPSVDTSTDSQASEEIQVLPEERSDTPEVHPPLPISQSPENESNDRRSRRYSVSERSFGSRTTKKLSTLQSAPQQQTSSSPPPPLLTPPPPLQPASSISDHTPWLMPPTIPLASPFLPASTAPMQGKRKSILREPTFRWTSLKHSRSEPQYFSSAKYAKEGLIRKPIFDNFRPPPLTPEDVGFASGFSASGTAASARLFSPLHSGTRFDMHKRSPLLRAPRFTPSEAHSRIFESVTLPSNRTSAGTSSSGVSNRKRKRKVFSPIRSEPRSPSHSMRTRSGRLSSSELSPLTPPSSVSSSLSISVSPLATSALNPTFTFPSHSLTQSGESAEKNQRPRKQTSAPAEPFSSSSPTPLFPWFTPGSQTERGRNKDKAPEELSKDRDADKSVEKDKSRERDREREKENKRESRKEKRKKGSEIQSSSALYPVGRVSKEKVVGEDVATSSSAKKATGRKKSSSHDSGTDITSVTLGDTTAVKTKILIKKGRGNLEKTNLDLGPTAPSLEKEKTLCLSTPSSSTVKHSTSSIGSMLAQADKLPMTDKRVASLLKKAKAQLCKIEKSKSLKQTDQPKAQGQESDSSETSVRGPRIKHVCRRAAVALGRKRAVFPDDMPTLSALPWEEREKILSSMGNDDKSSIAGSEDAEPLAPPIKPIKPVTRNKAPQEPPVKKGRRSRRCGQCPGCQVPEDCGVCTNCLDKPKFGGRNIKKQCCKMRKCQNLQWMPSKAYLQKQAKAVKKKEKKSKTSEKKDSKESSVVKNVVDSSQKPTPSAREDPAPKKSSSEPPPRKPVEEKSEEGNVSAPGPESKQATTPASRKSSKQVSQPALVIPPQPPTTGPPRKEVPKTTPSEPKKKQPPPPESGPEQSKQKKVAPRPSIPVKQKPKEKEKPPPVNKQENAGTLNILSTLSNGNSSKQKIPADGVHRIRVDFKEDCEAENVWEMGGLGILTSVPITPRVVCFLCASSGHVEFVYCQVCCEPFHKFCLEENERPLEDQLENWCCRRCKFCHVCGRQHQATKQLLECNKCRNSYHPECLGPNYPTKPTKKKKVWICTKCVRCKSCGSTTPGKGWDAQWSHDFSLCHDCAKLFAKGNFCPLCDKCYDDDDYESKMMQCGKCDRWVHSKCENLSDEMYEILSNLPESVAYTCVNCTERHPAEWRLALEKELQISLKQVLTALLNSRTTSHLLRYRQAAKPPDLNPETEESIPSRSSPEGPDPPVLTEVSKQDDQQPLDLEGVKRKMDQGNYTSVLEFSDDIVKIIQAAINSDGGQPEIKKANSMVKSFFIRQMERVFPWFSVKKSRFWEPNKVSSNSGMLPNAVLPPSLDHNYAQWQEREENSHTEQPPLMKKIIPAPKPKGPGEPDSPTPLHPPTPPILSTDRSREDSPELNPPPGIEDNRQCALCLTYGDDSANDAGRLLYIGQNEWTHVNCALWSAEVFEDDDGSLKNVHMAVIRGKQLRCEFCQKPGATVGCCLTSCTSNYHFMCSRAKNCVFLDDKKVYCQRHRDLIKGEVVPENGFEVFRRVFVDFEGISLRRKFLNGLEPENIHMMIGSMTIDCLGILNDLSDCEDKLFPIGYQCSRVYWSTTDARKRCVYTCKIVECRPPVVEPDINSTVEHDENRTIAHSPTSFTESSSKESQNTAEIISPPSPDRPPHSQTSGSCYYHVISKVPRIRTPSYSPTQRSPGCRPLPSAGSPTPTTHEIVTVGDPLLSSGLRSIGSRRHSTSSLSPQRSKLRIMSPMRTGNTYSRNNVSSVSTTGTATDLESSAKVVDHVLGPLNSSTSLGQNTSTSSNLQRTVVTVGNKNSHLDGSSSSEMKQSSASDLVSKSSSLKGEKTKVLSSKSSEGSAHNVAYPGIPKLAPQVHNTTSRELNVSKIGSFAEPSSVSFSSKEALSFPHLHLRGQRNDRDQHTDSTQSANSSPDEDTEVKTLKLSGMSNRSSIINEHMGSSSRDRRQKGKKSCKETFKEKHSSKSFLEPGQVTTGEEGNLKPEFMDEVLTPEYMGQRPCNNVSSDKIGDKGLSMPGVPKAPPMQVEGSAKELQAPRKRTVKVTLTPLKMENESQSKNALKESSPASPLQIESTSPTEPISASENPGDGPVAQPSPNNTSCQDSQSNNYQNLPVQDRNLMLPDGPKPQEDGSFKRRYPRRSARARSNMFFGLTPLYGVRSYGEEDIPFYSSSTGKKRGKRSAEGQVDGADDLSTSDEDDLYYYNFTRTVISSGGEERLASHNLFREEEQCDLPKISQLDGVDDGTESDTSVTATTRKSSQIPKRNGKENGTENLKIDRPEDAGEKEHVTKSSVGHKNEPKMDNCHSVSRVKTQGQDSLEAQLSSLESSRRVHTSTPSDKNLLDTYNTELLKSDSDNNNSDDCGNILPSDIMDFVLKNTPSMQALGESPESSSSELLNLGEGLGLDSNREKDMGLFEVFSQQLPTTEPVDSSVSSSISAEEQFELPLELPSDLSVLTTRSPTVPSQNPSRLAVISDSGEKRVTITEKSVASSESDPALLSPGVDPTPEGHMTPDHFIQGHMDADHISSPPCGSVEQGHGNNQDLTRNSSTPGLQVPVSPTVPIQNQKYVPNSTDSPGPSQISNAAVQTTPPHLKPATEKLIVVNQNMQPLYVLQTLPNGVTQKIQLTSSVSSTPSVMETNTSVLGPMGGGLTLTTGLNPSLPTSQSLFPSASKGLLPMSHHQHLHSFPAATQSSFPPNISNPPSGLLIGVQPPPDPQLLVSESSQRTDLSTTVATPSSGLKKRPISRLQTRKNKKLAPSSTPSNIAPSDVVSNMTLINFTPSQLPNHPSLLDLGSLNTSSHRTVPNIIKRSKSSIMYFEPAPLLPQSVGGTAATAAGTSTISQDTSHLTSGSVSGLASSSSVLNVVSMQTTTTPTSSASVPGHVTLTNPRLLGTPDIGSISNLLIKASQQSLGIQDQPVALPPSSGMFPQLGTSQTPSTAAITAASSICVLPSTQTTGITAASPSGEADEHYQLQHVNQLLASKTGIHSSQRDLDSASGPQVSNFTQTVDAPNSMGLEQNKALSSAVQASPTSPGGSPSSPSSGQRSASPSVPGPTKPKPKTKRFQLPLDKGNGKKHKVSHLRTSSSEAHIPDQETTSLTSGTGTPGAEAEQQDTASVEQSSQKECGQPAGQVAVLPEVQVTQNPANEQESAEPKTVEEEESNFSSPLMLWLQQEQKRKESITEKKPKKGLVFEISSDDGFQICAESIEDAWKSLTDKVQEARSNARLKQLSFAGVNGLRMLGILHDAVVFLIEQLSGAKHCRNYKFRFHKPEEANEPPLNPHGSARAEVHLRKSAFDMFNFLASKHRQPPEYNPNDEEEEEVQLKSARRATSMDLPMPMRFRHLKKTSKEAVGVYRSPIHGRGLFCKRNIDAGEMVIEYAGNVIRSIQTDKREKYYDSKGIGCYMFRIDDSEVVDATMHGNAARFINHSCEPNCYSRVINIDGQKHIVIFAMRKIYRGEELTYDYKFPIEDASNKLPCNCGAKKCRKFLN

Each compound was assayed against Histone-lysine N-methyltransferase 2A (Homo sapiens) (UniProt Q03164) (assay: qHTS Fluorescence Polarization Assay for Inhibitors of MLL CXXC domain - DNA interaction). Details: MLL-CXXC / FITC-HOXA9 DNA fluorescence polarization; series mostly up to 115 µM.
How it was run: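 Purified MLL-CXXC (added from a 7 uM solution) was preincubated 5 min at ambient with pinned compounds in 50 mM Tris-HCl pH 7.5, 50 mM NaCl, 1 mM DTT, 0.05% BSA. Fluorescein-labeled HOX-A9 DNA (50 nM solution) followed, 30 min, then polarization read.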
`O=C(CSc1ccc(-c2ccc(Cl)cc2)nn1)NC1CCCC1` was tested, and the Potency was inconclusive: 10 µM [quencher, side channel, single point]. For `CN1C(=S)SC(N(O)C(=O)Nc2cccc3ccccc23)C1(C)C` (centres undefined), the Potency was “inactive”. For `OC1(c2ccc(Br)cc2)CCN(Cc2cccc(Br)c2)CC1`, the Potency was “inactive”. For `Cc1cc(O)c(C2(O)C(=O)Nc3ccccc32)cc1C` (centres undefined), the Potency was inconclusive: 12.6 µM [fluorescent, side channel, single point]. With `CN(C)C(=O)CCSC(SCCC(=O)O)c1cccc(/C=C/c2ccc3ccc(Cl)cc3n2)c1` (centres undefined) the Potency was “inactive”. `CCN(CC)CCSc1nnc2c3ccccc3n(CCc3ccccc3)c2n1` was tested, and the Potency was inconclusive: 15.8 µM [fluorescent, side channel, single point]. With `CN1CCC(Oc2ccccc2Sc2ccccc2)CC1` the Potency was “inactive”. With `C/C(=N\Nc1nc(-c2cc(C)ccc2C)cs1)c1cc2ccccc2oc1=O` the Potency was inconclusive: 70.8 µM [fluorescent, side channel, single point]. With `CCOc1ccccc1OCCCOc1ccc([N+](=O)[O-])cc1Cl` the Potency was inconclusive: 15.8 µM [fluorescent, side channel, single point]. `COc1ccc(N2C(=O)C(CC(=O)O)S/C2=N\N=C\c2cccs2)cc1` (centres undefined) was tested, and the Potency was inconclusive: 50.1 µM [fluorescent, side channel, single point]. For `CCOc1ccc(NC(=O)NNC(=O)c2ccc3ccccc3c2O)cc1`, the Potency was inconclusive: 8.91 µM [fluorescent, side channel, single point]. With `O=C(NC(=S)NNC(=O)c1ccccc1O)c1ccc(F)cc1` the Potency was inconclusive: 3.98 µM [inhibitor, full curve]. With `O=c1c2ccccc2[nH]c(=S)n1CCCn1ccnc1` the Potency was inconclusive: 14.1 µM [fluorescent, side channel, single point]. For `CCN(CC)CCOc1ccc2c(c1)C(=NNC(=O)c1ccccn1)c1cc(OCCN(CC)CC)ccc1-2`, the Potency was inconclusive: 3.55 µM [quencher, side channel, full curve]. For `COc1cc(SC)ccc1C(=O)NC1CCCc2ccccc21` (centres undefined), the Potency was inconclusive: 15.8 µM [quencher, side channel, single point]. With `Cc1ccc(C)c(-n2c(-c3csc(C)c3)n[nH]c2=S)c1` the Potency was inconclusive: 12.6 µM [fluorescent, side channel, single point]. With `O=S(=O)(Nc1ccc(-c2nc3cccnc3s2)cc1)c1cccs1` the Potency was “inactive”. `CC(Sc1nnnn1-c1ccc(O)cc1)C(=O)NC1CCCCC1C` (centres undefined) was tested, and the Potency was inconclusive: 5.62 µM [quencher, side channel, partial curve]. With `COc1ccc(-c2csc(N(CCCN(C)C)C(=O)c3ccc(C(C)(C)C)cc3)n2)cc1` the Potency was inconclusive: 20 µM [quencher, side channel, partial curve]. `CCOC(=O)C1=C(C)NC(=S)NC1c1ccc(C)s1` (centres undefined) was tested, and the Potency was inconclusive: 89.1 µM [inhibitor, single point]. With `Cc1ccc(Nc2c(-c3ccccn3)nc3ccc(C)cn23)cc1` the Potency was inconclusive: 35.5 µM [quencher, side channel, partial curve]. For `CC(=O)Nc1ccc(S(=O)(=O)N(C)CC(=O)OC(C)C(=O)N(C)Cc2ccccc2)cc1` (centres undefined), the Potency was inconclusive: 14.1 µM [fluorescent, side channel, single point]. For `CNc1nc2c3ccccc3n(C(C)=O)c2s1`, the Potency was “inactive”. `Cc1ccccc1OCC(=O)OCn1nnc2ccccc2c1=O` was tested, and the Potency was inconclusive: 5.01 µM [inhibitor, full curve, poor fit]. For `CCN1/C(=C/c2ccc3cc(C)ccc3[n+]2CC)Sc2cc(C)ccc21`, the Potency was inconclusive: 31.6 µM [fluorescent, side channel, partial curve]. In the case of `COc1ccc(Cl)cc1NC(=O)Cn1c(=O)oc2ccccc21`, the Potency is reported as “inactive”. For `Cc1ccc(NC(=S)c2nc3ccccc3[nH]2)c(C)c1`, the Potency was “inactive”. With `CCc1ccc(CN(C)C(=O)c2cc(=O)c3ccccc3o2)cc1` the Potency was inconclusive: 10 µM [fluorescent, side channel, partial curve]. With `O=C(Nc1cc(S(=O)(=O)N2CCCCC2)ccc1Cl)c1ccccc1NS(=O)(=O)c1ccc(F)cc1` the Potency was inconclusive: 39.8 µM [inhibitor, single point]. For `O=C(Nc1cccnc1)c1cc(S(=O)(=O)N2CCOCC2)ccc1Br`, the Potency was inconclusive: 89.1 µM [quencher, side channel, single point]. In the case of `CCN1CCN(CCNC(=O)c2ccc(/C=C3/Sc4ccccc4N(Cc4ccccc4C)C3=O)cc2)CC1`, the Potency is reported as inconclusive: 63.1 µM [quencher, side channel, single point]. With `CCOCCc1nnc(NC(=O)C2CCN(C(=O)c3ccco3)CC2)s1` the Potency was inconclusive: 35.5 µM [fluorescent, side channel, partial curve]. With `O=C(Nc1ccnn1C1CCN(CCCc2ccccc2)CC1)c1cccc(F)c1` the Potency was “inactive”. In the case of `CCOC(=O)Cc1cc(=O)[nH]c(/N=C(\N)Nc2ccc(OC)cc2)n1`, the Potency is reported as inconclusive: 15.8 µM [quencher, side channel, single point]. In the case of `CCC(=O)N(C)C(c1ccccc1Cl)c1nnnn1-c1c(C)cccc1C` (centres undefined), the Potency is reported as inconclusive: 17.8 µM [quencher, side channel, full curve, poor fit]. For `COc1cc(/C=C2\SC(=S)N(N(C)c3ccccc3)C2=O)ccc1O`, the Potency was inconclusive: 22.4 µM [fluorescent, side channel, partial curve]. With `CCOC(=O)/C(=C/C1=CC(=C/N(C)C)/C(=O)O1)C(C)=O` the Potency was inconclusive: 39.8 µM [fluorescent, partial curve]. With `O=C(O)c1ccc(Cl)c(NC(=S)NC(=O)c2ccccc2[N+](=O)[O-])c1` the Potency was inconclusive: 70.8 µM [fluorescent, side channel, single point]. `CN=C1S/C(=C\c2ccc(N3CCCC3)c(F)c2)C(=O)N1C` was tested, and the Potency was inconclusive: 35.5 µM [fluorescent, side channel, partial curve]. `Cc1ccc(NS(=O)(=O)c2ccc(C(=O)NCc3ccccn3)cc2)cc1` was tested, and the Potency was inconclusive: 14.1 µM [fluorescent, side channel, single point]. With `COc1ccc(C(=O)COC(=O)CNC(=O)c2cccs2)cc1Br` the Potency was inconclusive: 31.6 µM [fluorescent, side channel, partial curve, poor fit]. `N#CC1=C(N)Oc2ccc3ccc(O)cc3c2C1c1ccsc1` (centres undefined) was tested, and the Potency was “inactive”. `COc1cc(/C=C/c2nc3ccccc3c(=O)[nH]2)cc(OC)c1OC` was tested, and the Potency was inconclusive: 89.1 µM [quencher, side channel, single point]. For `C(/C=C/C=C/Nc1ccccc1)=Nc1ccccc1`, the Potency was inconclusive: 31.6 µM [fluorescent, side channel, partial curve]. In the case of `COc1cc(S(=O)(=O)NCCCn2ccnc2)ccc1Cl`, the Potency is reported as “inactive”. With `O=c1cc(C23CC4CC(CC(C4)C2)C3)[nH][nH]1` the Potency was “inactive”. For `COc1ccc(CCN(C)C2CCCN(S(C)(=O)=O)C2)cc1OC` (centres undefined), the Potency was inconclusive: 44.7 µM [inhibitor, single point]. `CN1CCc2c(sc3ncn4nc(-c5ccccc5O)nc4c23)C1` was tested, and the Potency was inconclusive: 31.6 µM [quencher, side channel, partial curve]. In the case of `CCN1CCc2c(sc3c2c(NCc2ccco2)nc2nnnn23)C1`, the Potency is reported as “inactive”. With `COc1ccc(N=Nc2nc3cc(Br)c(Br)cc3n2C)c(OC)c1` the Potency was inconclusive: 14.1 µM [fluorescent, side channel, partial curve]. With `O=C(NC(Cc1ccccc1)C(=O)N1CCc2ccccc2C1)c1ccccc1` (centres undefined) the Potency was inconclusive: 70.8 µM [fluorescent, side channel, single point]. For `Cc1ccc2c(=O)cc(C(=O)Nc3ccc(S(=O)(=O)Nc4onc(C)c4C)cc3)oc2c1`, the Potency was “inactive”. With `Cc1ccnn1CC(=O)N/N=C/c1cn[nH]c1-c1ccc(F)cc1` the Potency was “inactive”. With `COc1ccc(S(=O)(=O)N2CCN(C(=O)COc3ccc4c(C)cc(=O)oc4c3)CC2)cc1` the Potency was “inactive”. With `CCN(CC)S(=O)(=O)c1cccc(C(=O)Nc2ccc(Cl)cn2)c1` the Potency was “inactive”. With `O=C1Cc2ccccc2C(=O)N1Cc1cccc(Cl)c1` the Potency was inconclusive: 11.2 µM [fluorescent, side channel, partial curve]. With `CC(c1ccc(O)cc1)(c1ccc(O)cc1)c1ccc(CCBr)cc1` the Potency was inconclusive: 31.6 µM [inhibitor, single point]. In the case of `CCN(CC)c1ccc(/C=N/NC(=O)Cc2cccs2)c(O)c1`, the Potency is reported as “inactive”. `Cc1nnc(SCc2cccs2)[nH]c1=O` was tested, and the Potency was “inactive”. In the case of `CCCCCCc1cc2cc(C(N)=O)c(=N)oc2cc1O`, the Potency is reported as inconclusive: 12.6 µM [fluorescent, side channel, partial curve]. In the case of `CN1CCN(c2cnn(-c3ccccc3)c(=O)c2Br)CC1`, the Potency is reported as inconclusive: 10 µM [fluorescent, side channel, single point]. For `O=C(C1=C[C@@H](c2ccc(Br)cc2)C[C@@H](OCCCCO)O1)N1CCN(Cc2ccccc2)CC1`, the Potency was inconclusive: 31.6 µM [inhibitor, partial curve]. In the case of `CC1(C)Cc2c(C#N)c(NCCN3CCOCC3)nc(-c3ccccc3)c2CO1`, the Potency is reported as “inactive”. For `COC(=O)NC1c2ccccc2Oc2ccc(C)cc21` (centres undefined), the Potency was inconclusive: 2.82 µM [fluorescent, side channel, full curve].
